pIC50: −log10 of the molar value. Not every detail of the peptide structures is certain; ends, links or a residue may be inferred. Some entries share one result that the patent states for a list of compounds. Where a SMILES comes first, the peptide text is derived from it. Where no end group is shown, it is not given here.
Experiments:
[1] = tested on: chaperone activity (Fluc-DM); assay: Fluc-DM luciferase reporter of cellular chaperone activity; type: cell-based; conditions: 20 μM peptide, overnight
Procedure: As Frag J/J^m overexpression locks DNAJA1-Hsp70 complex, whether such interactions inhibit chaperone activity was tested. […] To understand the in vivo effects of the Frag J or different peptides in multiple cell lines including BE/EAC and p53 isogenic lines, cells were first transfected/co-transfected with Fluc-DM±Frag J constructs. Twenty-four hours post-transfection, cells were either subjected to luciferase assay or for peptide treatment studies, cells were treated with 20 μM concentrations of different peptides. After overnight incubation, cell lysates were prepared using lysis buffer provided in the luciferase assay kit in Promega luciferase assay system (cat. E1910) followed by standardized protocol as provided by the manufacturer. […] Such observation was confirmed by an in vitro chaperone activity assay using recombinant purified Hsp40-Hsp70 complex (FIG. 6D). In Fluc-DM study, loss of Fluc-DM levels following Frag J/J^m overexpression (FIG. 6E) was noted as shown using immunoblotting. Such effects were independent of p53 mutation status.

CpA cells = conditions: for loss of survival: CpA cells, up to a concentration of 30 μM; for pIC50: read-out: IC50, clonogenic survival, CpA cells (wild type p53)
DNAJA1 = assay: Peptide pull down assay with recombinant DNAJA1; type: binding; conditions: NHS activated Sepharose beads, Western blot
Procedure: Briefly, 1 mg of peptide was dissolved in 1 ml of coupling buffer (0.2 M NaHCO3, 0.5 M NaCl, pH 8.3). Peptides were conjugated to NHS-activated resin by incubating 100 μL NHS bead slurry with 200 μL peptide solution for 2 hours at room temperature (RT). Unbound sites were blocked with quenching buffer (0.5 M ethanolamine, 500 mM NaCl). Resin peptide conjugates were washed once with low pH (0.1 M acetate, 0.5 M NaCl, pH 5) and high pH buffer (0.1 M Tris HCl, pH 8.0) and equilibrated with lysis buffer 50 mM HEPES, 150 mM NaCl, 0.2% NP-40, protease inhibitor cocktail, pH 7.5. Purified HSP40 protein was procured from Boston Scientific (cat #). Purified protein was diluted in lysis buffer. Approximately 40 nM protein was incubated with peptide coupled to NHS beads and incubated for 2 hours at RT. Unbound proteins were removed by centrifugation and beads were washed with washing buffer (50 mM HEPES, 300 mM NaCl, 0.2% NP-40, pH 7.5). Bound proteins were obtained by boiling beads with 1× Laemmli buffer. […] To confirm, thermal stability assays (TSA) were performed. TSA was carried out using QuantStudio™ 7 Flex Real-Time PCR System. […] The plates were covered with optical foil during the reaction in the thermal cycler. […] The Instrument was programmed in the melt curve mode with ROX reagent detection and Fast speed run. […] Melting temperature was calculated using the melt curve. […]

[2] = tested on: EAC cells (Flo1, OE19, and OE33); assay: Cell viability (MTT) of EAC cell lines; type: cell-based

With GRKKRRQRRRPQLGIEVDVEDG [Pep 12] the “inhibition of chaperone activity (Fluc-DM)” value [1] was “minimal inhibition”, the loss of survival (CpA cells) was “minimal loss of survival” and the “interaction with purified DNAJA1 in peptide pull down” value (DNAJA1) was “showed interactions”. For the same compound, the “effect on EAC cell lines” value [2] was “no effects”.

For `CC[C@H](C)[C@H](NC(=O)[C@H](CC(=O)O)NC(=O)[C@H](CS)NC(=O)[C@H](CCCCN)NC(=O)[C@H](CS)NC(=O)[C@H](CCSC)NC(=O)[C@@H]1CCCN1C(=O)[C@H](CCC(N)=O)NC(=O)[C@@H]1CCCN1C(=O)[C@H](CCCNC(=N)N)NC(=O)[C@H](CCCNC(=N)N)NC(=O)[C@H](CCCNC(=N)N)NC(=O)[C@H](CCC(N)=O)NC(=O)[C@H](CCCNC(=N)N)NC(=O)[C@H](CCCNC(=N)N)NC(=O)[C@H](CCCCN)NC(=O)[C@H](CCCCN)NC(=O)[C@H](CCCNC(=N)N)NC(=O)CN)C(=O)N[C@@H](CC(C)C)C(=O)N[C@@H](CCCCN)C(=O)N[C@@H](C)C(=O)O` [Pep 1] (H-GRKKRRQRRRPQPMCKCDILKA-OH; N-terminus and C-terminus assumed), the loss of survival (CpA cells) was “minimal loss of survival” and the pIC50 (CpA cells) was < 4.52.

GRKKRRQRRRPQPMCKVPPWRQ [Pep 5] was tested, and the loss of survival (CpA cells) was “minimal loss of survival” and the pIC50 (CpA cells) was < 4.52.
